Test results taken from article PMC13084340.
Results are given in words; binding and its absence hold for the method and conditions named. Binding seen in cells or lysates may run through a third protein. Some results given as binding are weak or reduced against the parent protein; the word gives no strength.

Protein sequences, listed by entry. Tags and fused reporters are not part of them.
UniProt P33993: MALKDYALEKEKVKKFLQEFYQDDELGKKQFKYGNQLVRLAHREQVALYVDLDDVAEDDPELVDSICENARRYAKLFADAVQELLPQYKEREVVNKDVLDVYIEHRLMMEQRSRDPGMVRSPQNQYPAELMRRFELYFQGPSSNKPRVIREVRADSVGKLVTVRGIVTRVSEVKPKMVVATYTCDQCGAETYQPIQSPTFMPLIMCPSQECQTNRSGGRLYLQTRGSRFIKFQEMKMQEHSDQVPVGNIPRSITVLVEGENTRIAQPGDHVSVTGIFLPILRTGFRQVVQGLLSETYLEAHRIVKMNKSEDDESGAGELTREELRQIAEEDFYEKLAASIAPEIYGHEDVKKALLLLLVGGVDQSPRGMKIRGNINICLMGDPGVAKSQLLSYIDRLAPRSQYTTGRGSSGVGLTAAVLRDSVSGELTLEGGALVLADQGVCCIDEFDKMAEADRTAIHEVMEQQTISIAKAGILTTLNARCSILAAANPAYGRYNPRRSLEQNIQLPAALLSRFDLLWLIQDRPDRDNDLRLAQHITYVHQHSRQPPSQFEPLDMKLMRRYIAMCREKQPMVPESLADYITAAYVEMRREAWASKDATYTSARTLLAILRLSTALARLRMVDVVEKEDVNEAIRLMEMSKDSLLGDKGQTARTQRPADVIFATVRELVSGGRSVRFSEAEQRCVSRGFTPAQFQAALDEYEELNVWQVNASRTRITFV
UniProt P04233: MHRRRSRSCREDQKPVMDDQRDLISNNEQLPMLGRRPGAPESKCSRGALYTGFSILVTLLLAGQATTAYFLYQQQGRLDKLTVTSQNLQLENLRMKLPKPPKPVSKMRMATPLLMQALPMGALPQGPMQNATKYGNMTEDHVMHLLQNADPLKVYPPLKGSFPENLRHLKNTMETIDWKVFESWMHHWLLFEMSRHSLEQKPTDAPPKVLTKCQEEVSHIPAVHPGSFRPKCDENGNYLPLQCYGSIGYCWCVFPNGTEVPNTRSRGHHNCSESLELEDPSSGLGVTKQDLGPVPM

B1: macrophage migration inhibitory factor (MIF) (protein, UniProt P14174 1-115)
chain: MPMFIVNTNVPRASVPDGFLSELTQQLAQATGKPPQYIAVHVVPDQLMAFGGSSEPCALCSLHSIGKIGGAQNRSYSKLLCGLLAERLRISPDRVYINYYDMNAANVGWNNSTFA

Biological target: minichromosome maintenance complex component 7 (MCM7) (human (endogenous in A549 and H1299)) (UniProt P33993)
Assay: co-IP; endogenous proteins; A549 and H1299 lysates in nondenaturing lysis buffer incubated with 3 ug anti-MCM7 antibody or normal rabbit IgG at room temperature for 2 h, Protein A/G agarose beads at 4°C for 4 h, five washes; western blot for MIF and CD74

Molecule	binding
CD74 (from UniProt P04233 1-296) (receptor)	binds
B1	binds
